Data taken from PMC8206213, “An L-2-hydroxyglutarate biosensor based on specific transcriptional regulator LhgR” (Nature Communications, 2021).
For at least one entry, the source does not settle the construct or the ends of the probe. For part of these data: A negative result means that nothing was seen under these conditions. For part of these data: A weaker result is weaker than the reference pair of the same experiment. For part of these data: At least one verdict was read from the data and is not stated in words by the source. For part of these data: Where a protein sequence is shown, tags need not be part of it.

Tests used:
Assay in all cases: EMSA
[1] = system: LHGFR0N3C (mTFP-LhgR-Venus) (Pseudomonas putida W619); conditions: EMSA: 10 mM Tris-HCl pH 7.4, 50 mM KCl, 0.5 mM EDTA, 10% glycerol, 1 mM DTT, 30 °C 30 min, 10 nM DNA; gel 6% native PAGE at 4 °C; recombinant protein; probe letters rebuilt from the primers and the genome
[2] = system: T1, LhgR (Pseudomonas putida W619); conditions: EMSA: 10 mM Tris-HCl pH 7.4, 50 mM KCl, 0.5 mM EDTA, 10% glycerol, 1 mM DTT, 30 °C 30 min, gel 6% native PAGE at 4 °C
T1 sequence (looked up): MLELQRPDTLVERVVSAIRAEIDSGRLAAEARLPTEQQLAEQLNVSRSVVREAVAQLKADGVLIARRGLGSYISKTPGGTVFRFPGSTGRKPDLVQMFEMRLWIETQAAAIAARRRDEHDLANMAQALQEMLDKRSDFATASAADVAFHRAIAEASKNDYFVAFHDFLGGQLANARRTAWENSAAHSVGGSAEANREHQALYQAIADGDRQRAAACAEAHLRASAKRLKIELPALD

[3] = system: LHGFR0N7C (mTFP-LhgR-Venus) (Pseudomonas putida W619); conditions: EMSA: 10 mM Tris-HCl pH 7.4, 50 mM KCl, 0.5 mM EDTA, 10% glycerol, 1 mM DTT, 30 °C 30 min, 10 nM DNA; gel 6% native PAGE at 4 °C; recombinant protein; probe letters rebuilt from the primers and the genome

Sequence	binding result [1]	binding result ([2]; 50 mM 2-KG, no release, 10 nM DNA, recombinant protein, residues 1-236, probe letters rebuilt from the primers and the genome)	binding result ([2]; 50 mM 5-aminovalerate, no release, 10 nM DNA, recombinant protein, residues 1-236, probe letters rebuilt from the primers and the genome)	binding result ([2]; 50 mM D-2-HG, no release, 10 nM DNA, recombinant protein, residues 1-236, probe letters rebuilt from the primers and the genome)	binding result ([2]; 50 mM L-2-HG, LhgR released from F1 (60 nM LhgR, 10 nM DNA), recombinant protein, residues 1-236, probe letters rebuilt from the primers and the genome)	binding result ([2]; 50 mM L-lysine, no release, 10 nM DNA, recombinant protein, residues 1-236, probe letters rebuilt from the primers and the genome)	binding result ([2]; 50 mM glutarate, no release, 10 nM DNA, recombinant protein, residues 1-236, probe letters rebuilt from the primers and the genome)	binding result ([2]; 50 mM succinate, no release, 10 nM DNA, recombinant protein, residues 1-236, probe letters rebuilt from the primers and the genome)	binding result ([2]; no ligand, complete shift at 8-fold molar excess (10 nM DNA), recombinant protein, residues 1-236, probe letters rebuilt from the primers and the genome)	binding result [3]	binding result ([2]; L-2-HG, 10 nM DNA, recombinant protein, residues 1-236, probe letters rebuilt from the primers and the genome)	binding result ([2]; no ligand, 10 nM DNA, recombinant …, residues 1-236, probe letters rebuilt from the primers and the genome)
TACCCAGAGCTTGCTGCGACCCGGCAAGCTCTTTTTTTTTACGCATCCATTAGTCTGACAACCTGATAAGCAGATCCACCGACAAGAATCACAAGGTACCCCTGC (double strand) [F1 (lhgO promoter)]	no binding	binds	binds	binds	binds more weakly	binds	binds	binds	binds	no binding		
AAGTCTGCCTGACGCGGCCGTCCAACCGCGGACCGGTGGCTTCTCTGCGCGAGACGGCTCACCGGTGCGAGGGCCATGCCTGGCAACGCACACCTGATCGAAACGATTGACATCCCATACCCGCCACAGGCATTGTCTGACAACCTGACCACTAGGCAATCGCTTCC (double strand) [F2 (lhgR promoter)]											binds more weakly	binds
